First the molecules themselves.
B1: Rmnd5a (protein, UniProt Q80YQ8 1-391)
chain: MDQCVTVERELEKVLHKFSGYGQLCERGLEELIDYTGGLKHEILQSHGQDAELSGTLSLVLTQCCKRIKDTVQKLASDHKDIHSSVSRVGKAIDKNFDSDISSVGIDGCWQADSQRLLNEVMVEHFFRQGMLDVAEELCQESGLSVDPSQKEPFVELNRILEALKVRVLRPALEWAVSNREMLIAQNSSLEFKLHRLYFISLLMGGTTNQREALQYAKNFQPFALNHQKDIQVLMGSLVYLRQGIENSPYVHLLDANQWADICDIFTRDACALLGLSVESPLSVSFSAGCVALPALINIKAVIEQRQCTGVWNQKDELPIEVDLGKKCWYHSIFACPILRQQTTDNNPPMKLVCGHIISRDALNKMFNGSKLKCPYCPMEQSPGDAKQIFF
B2: Znf598 (protein, UniProt Q80YR4 1-908)
chain: MAAAAGAEGRRAALEAVAAPERGGGSCVLCCGDLEATALGRCDHPVCYRCSTKMRVLCEQRYCAVCREELRQVVFGKKLPAFALIPIHQLQHEKKYDIYFADGKVFALYRQLLQHECPRCPHLPPFSLFGDLEQHMRKQHELFCCKLCLKHLKIFTYERKWYSRKDLARHRMQGDPDDTSHRGHPLCKFCDERYLDNDELLKHLRRDHYFCHFCDSDGAQDYYSDYAYLREHFREKHFLCEEGRCSTEQFTHAFRTEIDLKAHKTACHSRSRAEARQNRQIDLQFSFAPRHSRRSEGVVSGEDYEEVDRYNRQGRAGRASGRGAQQNRRGSWRYKREEEDREVAAAIRASVAAQQQEETQRVEDREEGSRPKKEEAAARVPEEPRGHRRLPRAQGEGSGSKEASANGPVSQEAFPATGPGPVVALSNTLPPPSPELKEEDFPSLCASTSSCCTAVTPGSVGLALAYPGPPRGKNTFQEEDFPALVSSAPKPSSAPSSLISAWNSGCSKKGNLPTPGSQAVVGGSQPPRKAGKGSRGGRKGGPAPVDEEDSGGLTVQGLRSVPTTVAVSSLLAPATNQSSAKVGKKKKVGSEKPGATSSPLLPPDHTPKPSGAEQVLEAPLSKAEVPVTIVVNGHSEGSALVRSAPKEPPGLPRPLGPLPCPIPQEDFPALGGPCPPRMPPPPGFSTVVLLKGTPPPPPPPPGLVPPISKPPPGFSSLLPSSHSACAPSPTTTTTTTTTTKTPGLAPTPQAYLVPENFRERNLQLIQSIKDFLQSDEACFSKFKSHSGEFRQGMISAAQYYKSCRDLLGESFQKIFSELLALLPDTAKQQELLSAHTDFCSREKPPNSRSKRNKKNVWQTSTQQLGLDCCVCPTCQQVLAHGDVSSHQALHAARDDDFPSLQAIARIIT
B3: MAP3K7 (protein, UniProt Q62073 1-579)
chain: MSTASAASSSSSSSASEMIEAPSQVLNFEEIDYKEIEVEEVVGRGAFGVVCKAKWRAKDVAIKQIESESERKAFIVELRQLSRVNHPNIVKLYGACLNPVCLVMEYAEGGSLYNVLHGAEPLPYYTAAHAMSWCLQCSQGVAYLHSMQPKALIHRDLKPPNLLLVAGGTVLKICDFGTACDIQTHMTNNKGSAAWMAPEVFEGSNYSEKCDVFSWGIILWEVITRRKPFDEIGGPAFRIMWAVHNGTRPPLIKNLPKPIESLMTRCWSKDPSQRPSMEEIVKIMTHLMRYFPGADEPLQYPCQYSDEGQSNSATSTGSFMDIASTNTSNKSDTNMEQVPATNDTIKRLESKLLKNQAKQQSESGRLSLGASRGSSVESLPPTSEGKRMSADMSEIEARIVATAGNGQPRRRSIQDLTVTGTEPGQVSSRSSSPSVRMITTSGPTSEKPARSHPWTPDDSTDTNGSDNSIPMAYLTLDHQLQPLAPCPNSKESMAVFEQHCKMAQEYMKVQTEIALLLQRKQELVAELDQDEKDQQNTSRLVQEHKKLLDENKSLSTYYQQCKKQLEVIRSQQQKRQGTS
B4: MAP3K3 (protein, UniProt Q61084 1-626)
chain: MDEQEALDSIMKDLVALQMSRRTRLSGYETMKNKDTGHPNRQSDVRIKFEHNGERRIIAFSRPVRYEDVEHKVTTVFGQPLDLHYMNNELSILLKNQDDLDKAIDILDRSSSMKSLRILLLSQDRNHTSSSPHSGVSRQVRIKPSQSAGDINTIYQAPEPRSRHLSVSSQNPGRSSPPPGYVPERQQHIARQGSYTSINSEGEFIPETSEQCMLDPLSSAENSLSGSCQSLDRSADSPSFRKSQMSRARSFPDNRKECSDRETQLYDKGVKGGTYPRRYHVSVHHKDYNDGRRTFPRIRRHQGNLFTLVPSSRSLSTNGENMGVAVQYLDPRGRLRSADSENALTVQERNVPTKSPSAPINWRRGKLLGQGAFGRVYLCYDVDTGRELASKQVQFDPDSPETSKEVSALECEIQLLKNLQHERIVQYYGCLRDRAEKILTIFMEYMPGGSVKDQLKAYGALTESVTRKYTRQILEGMSYLHSNMIVHRDIKGANILRDSAGNVKLGDFGASKRLQTICMSGTGIRSVTGTPYWMSPEVISGEGYGRKADVWSLGCTVVEMLTEKPPWAEYEAMAAIFKIATQPTNPQLPSHISEHGRDFLRRIFVEARQRPSAEELLTHHFAQLVY
B5: Dtx2 (protein, UniProt Q8R3P2 1-619)
chain: MAMAPSSSLPQVYPSHVVVAVWEWQDGLGIWHPYSATVCSFIEQHFVRQRGQHFGLGSLAHSIPLGQADPSLAPYIIDLPSWTQFRQNTGTMRSVRRHLFSQNSAPGQGIVWEWLGDDGSWVAYEARICDYLEQQVARGIQVVDLAPLGYNYTVNYATLTQTNKTSSFCRSVRRQVGPVYPVTSDIAVPRQMGLICFCQQCLHGSGTGPVSGRYRHSMTNLPAYPAPQAPHRTTTVSGAHQAFAPYNKPSLSGARSAPRLNTTNPWAAAPPVAGNQSLFHSSLSHLGPQLLPSGPSTSSGASASFPSGPSSSSPGSAPTTVPVQMPKASRVQQALAGMTSVLSAIGLPVCLSRAPRPTGPPASRPASKSHSSVKRLRKMSVKEGAPKPEPEQVIRKYTEELKVAPEEDCIICMEKLAVASGYSDMTDSKALGPMVVGRLTKCSHAFHLLCLLAMYCNGNKDGSLQCPSCKTIYGEKTGTQPWGKMEVFRFQMSLPGHEDCGTILIVYNIPHGIQGPEHPSPGKPFTARGFPRQCYLPDSPQGRKVLELLKVAWKRRLIFTVGTSSTTGETDTVVWNEIHHKTEMDRNVTGHGYPDPNYLQNVLAELAAQGVTEDCLEQQ
B6: Herc4 (protein, UniProt Q6PAV2 1-1057)
chain: MLCWGNASYGQLGLGGIDEEIVLEPRRSDFFVNKKVRDVGCGLRHTVFVLDDGTVYTCGCNDLGQLGHEKSRKKPEQVVALDAQNIVAVACGEAHTLALNDKGQVYAWGLDSDGQLGLQGSEECIRVPRNIKSLSDIQIVQVACGYYHSLALSKASEVFCWGQNKYGQLGLGIDCQKQTSPQLIKSLLGIPFMQVAAGGAHSFVLTLSGAIFGWGRNKFGQLGLNDENDRYVPNLLKSLRSQKIVYICCGEDHTAALTKEGGVFTFGAGGYGQLGHNSTSHEINPRKVFELMGSIVTQVACGRQHTSAFVPSSGRIYSFGLGGNGQLGTGSTSNRKSPFTVKGNWFSYNGQCPQDIGSEDYFCVKRIFSGGDQSFSHYSSPQNCGPPDDFRCSDPSKQIWTVNEALIQKWLSYPSGRFPVEIANEIDGTFSSSGCLNGSFLAISNDDHYRTGTRFSGVDMNAARLLFHKLIQPDHPQISQQVAASLEKNLIPKLTSSLPDVEALRFYLTLPECPLMSDCNNFTTIAIPFGTALVNLEKAPLKVLENWWSVLEPPLFLKIVELFKEVVVHLLKLYKIGIPPSERRIFNSFLHTALKVLEILHRVNEKTGQLIQYDKFYIHEVQELIDIRNDYINWVQQQAYGVDVSHGVTELADIPVTICTYPFVFDAQAKTTLLQTDAVLQMQMAIDQAHRQNVSSLFLPVIESVNPCLILVVRRENIVGDAMEVLRKTKNIDYKKPLKVIFVGEDAVDAGGVRKEFFLLIMRELLDPKYGMFRYYEDSRLIWFSDKTFEDSDLFHLIGVICGLAIYNFTIVDLHFPLALYKKLLKRKPSLDDLKELMPAVGRSMQQLLDYPEDDIEETFCLNFTITVENFGATEVKELVLNGADTAVNRQNRQEFVDAYVDYIFNKSVASLFDAFHAGFHKVCGGKVLLLFQPNELQAMVIGNTNYDWKELEKNTEYKGEYWADHPTIKIFWEVFHELPLEKKKQFLLFLTGSDRIPILGMKSLKLVIQSTGGGESYLPVSHTCFNLLDLPKYTEKETLRCKLIQAIDHNEGFSLI

The chains behind the UniProt entries cited, without tags or fusion partners. Residues count along the entry.
UniProt Q8C255, residues 32-459: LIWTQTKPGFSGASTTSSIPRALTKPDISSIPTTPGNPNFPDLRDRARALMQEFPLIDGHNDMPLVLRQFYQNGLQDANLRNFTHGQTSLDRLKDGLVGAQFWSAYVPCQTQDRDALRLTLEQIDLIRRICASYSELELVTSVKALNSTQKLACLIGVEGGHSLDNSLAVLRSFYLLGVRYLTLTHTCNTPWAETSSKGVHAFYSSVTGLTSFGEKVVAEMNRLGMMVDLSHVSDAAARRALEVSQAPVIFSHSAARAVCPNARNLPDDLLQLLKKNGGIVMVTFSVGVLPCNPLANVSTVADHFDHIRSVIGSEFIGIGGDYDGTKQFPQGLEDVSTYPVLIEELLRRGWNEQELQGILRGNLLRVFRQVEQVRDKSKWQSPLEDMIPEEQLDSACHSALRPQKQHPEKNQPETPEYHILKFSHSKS
UniProt P63280: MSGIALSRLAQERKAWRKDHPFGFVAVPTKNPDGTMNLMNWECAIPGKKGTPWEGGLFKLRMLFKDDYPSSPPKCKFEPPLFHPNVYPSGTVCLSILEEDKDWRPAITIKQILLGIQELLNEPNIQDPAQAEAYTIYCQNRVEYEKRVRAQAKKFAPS
UniProt P08152: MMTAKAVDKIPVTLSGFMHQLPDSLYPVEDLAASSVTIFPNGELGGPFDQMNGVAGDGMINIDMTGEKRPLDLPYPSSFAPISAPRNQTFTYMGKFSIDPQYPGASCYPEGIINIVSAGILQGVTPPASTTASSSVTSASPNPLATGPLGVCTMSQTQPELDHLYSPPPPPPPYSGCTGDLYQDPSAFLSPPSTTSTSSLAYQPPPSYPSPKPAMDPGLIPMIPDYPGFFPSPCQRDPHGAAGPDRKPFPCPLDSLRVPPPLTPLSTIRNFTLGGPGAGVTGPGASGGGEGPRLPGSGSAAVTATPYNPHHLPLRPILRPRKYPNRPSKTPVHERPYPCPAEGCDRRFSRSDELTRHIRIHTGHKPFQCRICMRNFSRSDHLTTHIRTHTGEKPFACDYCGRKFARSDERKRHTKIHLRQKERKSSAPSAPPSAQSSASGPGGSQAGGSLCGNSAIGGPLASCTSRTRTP
UniProt Q80TP3: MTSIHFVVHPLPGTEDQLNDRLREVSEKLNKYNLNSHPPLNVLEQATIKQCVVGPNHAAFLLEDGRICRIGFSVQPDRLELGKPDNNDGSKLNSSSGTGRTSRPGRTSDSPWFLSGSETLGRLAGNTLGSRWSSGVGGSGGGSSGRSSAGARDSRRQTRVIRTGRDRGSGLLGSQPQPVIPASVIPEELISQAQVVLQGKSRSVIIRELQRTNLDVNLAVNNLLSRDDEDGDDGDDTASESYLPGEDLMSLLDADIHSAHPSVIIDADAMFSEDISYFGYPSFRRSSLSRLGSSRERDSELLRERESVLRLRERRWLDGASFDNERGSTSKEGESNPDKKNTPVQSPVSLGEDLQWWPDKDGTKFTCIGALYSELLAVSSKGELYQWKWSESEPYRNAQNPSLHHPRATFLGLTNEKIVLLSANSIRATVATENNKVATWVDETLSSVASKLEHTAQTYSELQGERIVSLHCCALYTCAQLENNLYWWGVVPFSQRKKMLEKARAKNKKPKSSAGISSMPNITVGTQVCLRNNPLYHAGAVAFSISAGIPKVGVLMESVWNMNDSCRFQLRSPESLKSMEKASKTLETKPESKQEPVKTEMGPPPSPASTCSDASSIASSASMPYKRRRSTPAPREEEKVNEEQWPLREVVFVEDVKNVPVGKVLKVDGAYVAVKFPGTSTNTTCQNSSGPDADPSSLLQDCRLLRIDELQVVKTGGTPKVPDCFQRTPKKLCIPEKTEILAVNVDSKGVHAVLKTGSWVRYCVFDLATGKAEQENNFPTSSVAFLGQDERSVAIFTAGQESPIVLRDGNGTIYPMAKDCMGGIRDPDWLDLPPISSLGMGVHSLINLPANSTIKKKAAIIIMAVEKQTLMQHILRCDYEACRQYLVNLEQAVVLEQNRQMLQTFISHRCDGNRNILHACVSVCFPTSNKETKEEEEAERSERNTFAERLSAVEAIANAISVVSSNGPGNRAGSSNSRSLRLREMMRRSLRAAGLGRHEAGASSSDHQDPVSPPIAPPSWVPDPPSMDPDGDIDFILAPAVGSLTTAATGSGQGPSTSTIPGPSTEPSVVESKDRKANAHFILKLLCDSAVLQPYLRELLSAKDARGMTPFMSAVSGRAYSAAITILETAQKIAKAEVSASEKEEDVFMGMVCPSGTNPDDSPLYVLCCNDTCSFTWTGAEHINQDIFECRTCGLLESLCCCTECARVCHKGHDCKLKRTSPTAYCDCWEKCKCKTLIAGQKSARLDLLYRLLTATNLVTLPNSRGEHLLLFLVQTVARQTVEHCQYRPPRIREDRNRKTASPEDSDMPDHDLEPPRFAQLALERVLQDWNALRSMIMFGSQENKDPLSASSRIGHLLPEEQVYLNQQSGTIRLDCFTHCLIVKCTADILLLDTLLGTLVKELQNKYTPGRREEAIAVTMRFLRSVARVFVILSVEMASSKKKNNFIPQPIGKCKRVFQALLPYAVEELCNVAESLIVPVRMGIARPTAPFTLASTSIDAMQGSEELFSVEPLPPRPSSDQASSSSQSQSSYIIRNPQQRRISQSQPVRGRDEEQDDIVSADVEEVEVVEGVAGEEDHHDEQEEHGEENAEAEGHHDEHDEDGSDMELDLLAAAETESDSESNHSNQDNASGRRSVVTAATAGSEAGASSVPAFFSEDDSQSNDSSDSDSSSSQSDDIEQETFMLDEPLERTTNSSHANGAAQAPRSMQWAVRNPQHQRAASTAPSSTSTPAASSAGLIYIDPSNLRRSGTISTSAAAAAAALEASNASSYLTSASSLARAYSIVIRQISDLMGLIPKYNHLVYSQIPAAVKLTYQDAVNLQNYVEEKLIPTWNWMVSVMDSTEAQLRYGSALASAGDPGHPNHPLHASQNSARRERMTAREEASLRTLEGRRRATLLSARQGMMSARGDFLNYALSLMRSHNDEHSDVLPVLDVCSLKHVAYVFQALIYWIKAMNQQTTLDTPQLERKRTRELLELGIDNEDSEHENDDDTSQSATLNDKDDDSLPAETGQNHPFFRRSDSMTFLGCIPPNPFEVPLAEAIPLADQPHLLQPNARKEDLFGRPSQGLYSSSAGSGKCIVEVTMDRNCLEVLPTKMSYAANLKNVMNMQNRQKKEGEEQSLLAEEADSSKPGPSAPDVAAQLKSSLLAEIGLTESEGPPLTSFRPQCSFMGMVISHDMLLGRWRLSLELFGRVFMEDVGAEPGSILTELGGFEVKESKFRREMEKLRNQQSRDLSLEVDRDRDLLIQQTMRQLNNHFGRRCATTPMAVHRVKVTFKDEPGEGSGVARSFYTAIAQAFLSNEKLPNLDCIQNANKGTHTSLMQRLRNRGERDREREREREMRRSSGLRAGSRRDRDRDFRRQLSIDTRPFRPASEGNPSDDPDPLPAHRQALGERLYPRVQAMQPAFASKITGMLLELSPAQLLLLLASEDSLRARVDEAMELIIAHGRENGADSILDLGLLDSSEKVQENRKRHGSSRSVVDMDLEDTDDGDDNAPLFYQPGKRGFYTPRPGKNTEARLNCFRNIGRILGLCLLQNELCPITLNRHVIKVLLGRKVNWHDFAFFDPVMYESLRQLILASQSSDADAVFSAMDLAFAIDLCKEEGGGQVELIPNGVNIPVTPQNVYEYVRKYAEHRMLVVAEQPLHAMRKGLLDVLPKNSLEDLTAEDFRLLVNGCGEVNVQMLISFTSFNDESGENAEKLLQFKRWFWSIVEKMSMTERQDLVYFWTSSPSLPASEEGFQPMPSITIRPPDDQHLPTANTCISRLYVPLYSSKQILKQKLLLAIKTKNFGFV

The results in this text go back to article PMC12283963.

No constants are given. Whether binding was seen depends on the method and setting. In cells and extracts the contact can be indirect. Here binding means that the protein was enriched with, or labelled near, the bait; the list need not be complete.

In one assay the target is Dipeptidase-2 (DPEP2) (mouse (endogenous in BMDMs)) (UniProt Q8C255). Description: affinity purification with mass spectrometry; anti-DPEP2 antibodies (Proteintech) and Protein G beads on BMDM lysate; IgG antibodies as negative control; SDS/PAGE, silver staining, LC-MS/MS.
Take B1: the binding result is listed as “binds”.

For the molecule B2, the binding result is given as “binds”.

B3: the binding entry is recorded as “binds”.

For the molecule B4, the binding entry is reported as “binds”.

For the molecule B5, the binding result was “binds”.

For B6, the binding entry is recorded as “binds”.

The next assay shares this target. The description is as above. This is another data set of the same source.
For Ube2i (from UniProt P63280 1-158), the binding entry was “binds”.

Egr2 (from UniProt P08152 1-470): the binding entry was “binds”.

On to Ubr5 (from UniProt Q80TP3 1-2792), for which the binding result was “binds”.

As to MAP3K20 (from UniProt Q9ESL4 1-802), the binding result is “binds”.
